The record followed here is publication PMC8964761.

By UniProt entry, the sequences of proteins in these tests, tags left out. Where a name states a change or a piece, a line headed by the entry shows the natural chain unless it says otherwise. Residues count along the entry.
UniProt Q03405: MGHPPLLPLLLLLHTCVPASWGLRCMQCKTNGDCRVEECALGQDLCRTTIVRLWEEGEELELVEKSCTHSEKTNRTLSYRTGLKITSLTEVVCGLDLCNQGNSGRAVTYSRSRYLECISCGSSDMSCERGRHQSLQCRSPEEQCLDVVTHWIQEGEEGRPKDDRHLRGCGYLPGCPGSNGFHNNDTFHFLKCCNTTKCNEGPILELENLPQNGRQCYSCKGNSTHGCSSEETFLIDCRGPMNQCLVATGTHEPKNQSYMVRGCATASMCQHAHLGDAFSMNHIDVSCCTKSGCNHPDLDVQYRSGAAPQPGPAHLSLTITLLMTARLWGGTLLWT
UniProt P01042, residues 19-644: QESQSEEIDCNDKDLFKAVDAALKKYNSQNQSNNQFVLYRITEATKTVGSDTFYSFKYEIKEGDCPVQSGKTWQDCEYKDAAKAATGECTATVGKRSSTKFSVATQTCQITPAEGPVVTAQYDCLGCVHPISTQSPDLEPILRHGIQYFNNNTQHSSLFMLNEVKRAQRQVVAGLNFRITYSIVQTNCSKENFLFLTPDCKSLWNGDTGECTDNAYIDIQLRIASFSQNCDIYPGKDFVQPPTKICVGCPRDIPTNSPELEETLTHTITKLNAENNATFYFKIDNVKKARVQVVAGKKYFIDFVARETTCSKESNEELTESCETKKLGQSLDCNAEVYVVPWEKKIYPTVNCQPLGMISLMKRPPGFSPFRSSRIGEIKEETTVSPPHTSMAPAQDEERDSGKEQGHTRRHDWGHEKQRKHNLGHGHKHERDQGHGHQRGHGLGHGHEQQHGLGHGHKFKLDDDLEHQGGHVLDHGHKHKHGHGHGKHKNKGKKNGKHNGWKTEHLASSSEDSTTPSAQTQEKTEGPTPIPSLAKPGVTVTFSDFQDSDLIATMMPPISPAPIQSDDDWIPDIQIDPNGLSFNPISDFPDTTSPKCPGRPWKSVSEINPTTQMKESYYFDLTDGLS

The target in this assay is dimeric suPAR (human) (UniProt Q03405). Description: pull-down; monomeric or dimeric suPAR held on ATN658-coated Protein A Dynabeads; ligands at 0.5 mg/mL for 10 min in PBST, room temperature; eluted with 50 mM Glycine pH 2.8, SDS-PAGE; both purified.

No constants are given. Whether binding was seen depends on the method and setting. Binding can be weak; no strength is given.

“high molecular weight kininogen (HMWK) (from UniProt P01042 19-644) (ligand)”: the binding result is given as “binds”.

B1: streptococcal surface dehydrogenase (SDH) (protein, UniProt P0C0G7 1-336)
chain: MVVKVGINGFGRIGRLAFRRIQNIEGVEVTRINDLTDPNMLAHLLKYDTTQGRFDGTVEVKEGGFEVNGNFIKVSAERDPENIDWATDGVEIVLEATGFFAKKEAAEKHLHANGAKKVVITAPGGNDVKTVVFNTNHDILDGTETVISGASCTTNCLAPMAKALHDAFGIQKGLMTTIHAYTGDQMILDGPHRGGDLRRARAGAANIVPNSTGAAKAIGLVIPELNGKLDGAAQRVPVPTGSVTELVVTLDKNVSVDEINAAMKAASNDSFGYTEDPIVSSDIVGVSYGSLFDATQTKVMEVDGSQLVKVVSWYDNEMSYTAQLVRTLEYFAKIAK
As for B1, the binding entry is recorded as “binds”.
